Experimental findings from the supplement of paper PMC6411743 are described below.

The chains behind the UniProt entries cited, without tags or fusion partners. Where a name states a change or a piece, a line headed by the entry shows the natural chain unless it says otherwise.
UniProt Q9NZB2: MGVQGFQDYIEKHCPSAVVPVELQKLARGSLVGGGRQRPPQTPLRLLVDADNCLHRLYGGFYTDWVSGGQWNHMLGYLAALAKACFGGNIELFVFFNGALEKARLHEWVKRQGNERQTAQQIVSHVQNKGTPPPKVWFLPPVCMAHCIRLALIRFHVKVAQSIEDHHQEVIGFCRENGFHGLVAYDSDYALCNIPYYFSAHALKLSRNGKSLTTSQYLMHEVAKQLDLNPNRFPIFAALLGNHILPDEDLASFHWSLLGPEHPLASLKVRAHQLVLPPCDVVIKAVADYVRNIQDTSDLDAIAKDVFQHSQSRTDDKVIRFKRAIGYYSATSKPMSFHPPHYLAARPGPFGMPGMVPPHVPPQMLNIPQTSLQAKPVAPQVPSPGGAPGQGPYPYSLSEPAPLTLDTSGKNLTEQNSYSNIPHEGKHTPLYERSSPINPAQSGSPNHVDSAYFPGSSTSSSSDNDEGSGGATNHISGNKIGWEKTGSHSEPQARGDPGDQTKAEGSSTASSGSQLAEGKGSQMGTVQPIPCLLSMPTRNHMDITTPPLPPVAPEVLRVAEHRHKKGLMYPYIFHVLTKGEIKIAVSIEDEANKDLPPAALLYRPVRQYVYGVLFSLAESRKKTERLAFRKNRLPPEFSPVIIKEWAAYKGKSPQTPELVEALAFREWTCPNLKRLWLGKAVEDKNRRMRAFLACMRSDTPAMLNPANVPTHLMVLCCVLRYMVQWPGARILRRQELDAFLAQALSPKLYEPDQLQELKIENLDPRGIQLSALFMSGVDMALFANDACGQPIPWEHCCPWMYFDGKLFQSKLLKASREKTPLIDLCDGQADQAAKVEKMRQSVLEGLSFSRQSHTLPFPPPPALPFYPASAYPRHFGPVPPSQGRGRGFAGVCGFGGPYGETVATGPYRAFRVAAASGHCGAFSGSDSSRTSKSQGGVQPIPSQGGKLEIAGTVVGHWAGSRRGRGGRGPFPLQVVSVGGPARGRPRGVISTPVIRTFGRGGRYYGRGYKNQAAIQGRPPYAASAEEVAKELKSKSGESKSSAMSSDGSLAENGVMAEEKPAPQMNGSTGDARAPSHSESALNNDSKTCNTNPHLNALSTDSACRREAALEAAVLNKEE
UniProt Q9UK76: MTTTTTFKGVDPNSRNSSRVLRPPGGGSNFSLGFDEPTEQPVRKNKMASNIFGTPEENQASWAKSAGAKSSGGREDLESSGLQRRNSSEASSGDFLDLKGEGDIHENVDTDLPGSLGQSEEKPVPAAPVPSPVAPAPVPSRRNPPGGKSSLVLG
UniProt Q9UEE9, whole entry: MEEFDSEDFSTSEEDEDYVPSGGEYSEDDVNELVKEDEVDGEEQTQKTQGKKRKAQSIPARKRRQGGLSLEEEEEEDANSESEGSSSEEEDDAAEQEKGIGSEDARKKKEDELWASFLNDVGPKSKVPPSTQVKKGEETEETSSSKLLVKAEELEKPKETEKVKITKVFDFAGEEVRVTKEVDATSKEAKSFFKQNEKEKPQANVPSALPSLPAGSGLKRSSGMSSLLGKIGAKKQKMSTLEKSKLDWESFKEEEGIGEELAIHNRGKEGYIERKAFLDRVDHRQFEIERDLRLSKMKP
UniProt Q9UJ83: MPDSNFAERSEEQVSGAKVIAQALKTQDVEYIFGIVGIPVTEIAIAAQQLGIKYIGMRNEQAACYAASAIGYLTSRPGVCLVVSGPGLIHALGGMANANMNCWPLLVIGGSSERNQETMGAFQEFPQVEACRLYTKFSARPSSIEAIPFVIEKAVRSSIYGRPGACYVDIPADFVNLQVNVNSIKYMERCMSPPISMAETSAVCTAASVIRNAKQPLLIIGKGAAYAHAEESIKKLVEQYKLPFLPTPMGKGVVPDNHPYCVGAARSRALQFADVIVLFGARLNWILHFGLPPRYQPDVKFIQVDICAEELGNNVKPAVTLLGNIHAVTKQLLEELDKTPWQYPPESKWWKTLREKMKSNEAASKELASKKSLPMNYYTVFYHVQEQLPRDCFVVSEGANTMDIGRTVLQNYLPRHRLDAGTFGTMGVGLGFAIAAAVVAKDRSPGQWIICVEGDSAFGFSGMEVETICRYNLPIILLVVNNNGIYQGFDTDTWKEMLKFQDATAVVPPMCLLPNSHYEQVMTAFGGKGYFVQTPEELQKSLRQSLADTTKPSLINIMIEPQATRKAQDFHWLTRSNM
UniProt Q9UBP6: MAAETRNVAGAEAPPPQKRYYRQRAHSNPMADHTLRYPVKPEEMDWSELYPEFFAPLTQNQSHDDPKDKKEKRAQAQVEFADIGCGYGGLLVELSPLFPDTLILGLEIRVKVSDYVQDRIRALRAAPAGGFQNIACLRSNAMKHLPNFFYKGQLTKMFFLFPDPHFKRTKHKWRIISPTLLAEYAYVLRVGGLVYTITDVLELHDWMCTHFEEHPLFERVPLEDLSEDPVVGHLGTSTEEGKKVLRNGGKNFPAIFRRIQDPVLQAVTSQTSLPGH
UniProt Q9ULP9: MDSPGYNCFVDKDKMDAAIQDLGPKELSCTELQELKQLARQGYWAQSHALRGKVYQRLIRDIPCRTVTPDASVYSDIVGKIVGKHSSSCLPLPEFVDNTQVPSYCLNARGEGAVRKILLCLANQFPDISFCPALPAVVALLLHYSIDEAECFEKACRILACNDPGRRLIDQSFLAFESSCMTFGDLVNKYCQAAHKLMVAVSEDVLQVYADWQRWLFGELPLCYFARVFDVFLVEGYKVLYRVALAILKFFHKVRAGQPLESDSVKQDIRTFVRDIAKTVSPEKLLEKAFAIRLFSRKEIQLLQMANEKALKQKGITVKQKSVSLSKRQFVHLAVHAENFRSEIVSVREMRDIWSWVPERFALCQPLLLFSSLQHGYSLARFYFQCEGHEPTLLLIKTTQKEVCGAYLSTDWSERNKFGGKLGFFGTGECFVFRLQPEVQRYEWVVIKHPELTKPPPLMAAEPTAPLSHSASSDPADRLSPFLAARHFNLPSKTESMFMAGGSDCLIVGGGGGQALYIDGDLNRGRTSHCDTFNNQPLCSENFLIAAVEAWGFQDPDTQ
UniProt Q9UBP0: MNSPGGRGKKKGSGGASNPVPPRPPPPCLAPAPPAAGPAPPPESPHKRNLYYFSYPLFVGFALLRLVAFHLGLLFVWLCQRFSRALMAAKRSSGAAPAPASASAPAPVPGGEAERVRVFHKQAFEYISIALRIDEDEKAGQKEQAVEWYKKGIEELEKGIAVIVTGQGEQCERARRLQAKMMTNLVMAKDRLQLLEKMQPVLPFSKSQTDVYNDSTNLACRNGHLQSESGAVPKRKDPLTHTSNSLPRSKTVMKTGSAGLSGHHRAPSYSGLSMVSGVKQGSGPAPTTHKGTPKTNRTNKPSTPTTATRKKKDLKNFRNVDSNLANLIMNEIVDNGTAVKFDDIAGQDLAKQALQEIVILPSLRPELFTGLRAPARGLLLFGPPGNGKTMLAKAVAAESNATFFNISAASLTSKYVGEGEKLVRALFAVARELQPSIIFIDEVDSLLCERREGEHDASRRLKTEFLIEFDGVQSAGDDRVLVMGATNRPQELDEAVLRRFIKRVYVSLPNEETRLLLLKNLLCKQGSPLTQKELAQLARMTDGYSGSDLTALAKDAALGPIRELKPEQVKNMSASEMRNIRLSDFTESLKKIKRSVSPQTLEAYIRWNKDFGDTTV
UniProt Q9UJA5: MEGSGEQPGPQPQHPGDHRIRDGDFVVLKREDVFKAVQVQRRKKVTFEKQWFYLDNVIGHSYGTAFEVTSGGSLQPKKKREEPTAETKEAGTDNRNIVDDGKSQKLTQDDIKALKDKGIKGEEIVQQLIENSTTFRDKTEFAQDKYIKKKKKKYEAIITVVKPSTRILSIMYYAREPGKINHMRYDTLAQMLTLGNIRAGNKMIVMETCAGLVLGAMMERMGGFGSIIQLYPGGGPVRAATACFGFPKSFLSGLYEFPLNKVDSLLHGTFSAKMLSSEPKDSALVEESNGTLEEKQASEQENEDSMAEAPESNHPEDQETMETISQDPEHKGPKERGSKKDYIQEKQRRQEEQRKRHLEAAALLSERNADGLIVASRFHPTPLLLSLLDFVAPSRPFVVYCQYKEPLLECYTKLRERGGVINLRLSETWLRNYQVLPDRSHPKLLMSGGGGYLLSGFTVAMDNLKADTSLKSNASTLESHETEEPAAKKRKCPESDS
UniProt Q9UH62: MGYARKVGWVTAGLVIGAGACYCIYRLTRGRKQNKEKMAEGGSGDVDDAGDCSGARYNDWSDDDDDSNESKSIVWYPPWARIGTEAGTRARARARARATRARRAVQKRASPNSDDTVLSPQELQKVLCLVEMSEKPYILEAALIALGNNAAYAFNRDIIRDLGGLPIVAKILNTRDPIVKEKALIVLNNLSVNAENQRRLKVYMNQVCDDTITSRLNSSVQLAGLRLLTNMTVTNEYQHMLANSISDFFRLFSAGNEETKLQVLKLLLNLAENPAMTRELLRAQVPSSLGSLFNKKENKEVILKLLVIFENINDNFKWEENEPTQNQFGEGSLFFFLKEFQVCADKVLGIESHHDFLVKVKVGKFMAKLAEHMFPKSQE
UniProt Q9P265: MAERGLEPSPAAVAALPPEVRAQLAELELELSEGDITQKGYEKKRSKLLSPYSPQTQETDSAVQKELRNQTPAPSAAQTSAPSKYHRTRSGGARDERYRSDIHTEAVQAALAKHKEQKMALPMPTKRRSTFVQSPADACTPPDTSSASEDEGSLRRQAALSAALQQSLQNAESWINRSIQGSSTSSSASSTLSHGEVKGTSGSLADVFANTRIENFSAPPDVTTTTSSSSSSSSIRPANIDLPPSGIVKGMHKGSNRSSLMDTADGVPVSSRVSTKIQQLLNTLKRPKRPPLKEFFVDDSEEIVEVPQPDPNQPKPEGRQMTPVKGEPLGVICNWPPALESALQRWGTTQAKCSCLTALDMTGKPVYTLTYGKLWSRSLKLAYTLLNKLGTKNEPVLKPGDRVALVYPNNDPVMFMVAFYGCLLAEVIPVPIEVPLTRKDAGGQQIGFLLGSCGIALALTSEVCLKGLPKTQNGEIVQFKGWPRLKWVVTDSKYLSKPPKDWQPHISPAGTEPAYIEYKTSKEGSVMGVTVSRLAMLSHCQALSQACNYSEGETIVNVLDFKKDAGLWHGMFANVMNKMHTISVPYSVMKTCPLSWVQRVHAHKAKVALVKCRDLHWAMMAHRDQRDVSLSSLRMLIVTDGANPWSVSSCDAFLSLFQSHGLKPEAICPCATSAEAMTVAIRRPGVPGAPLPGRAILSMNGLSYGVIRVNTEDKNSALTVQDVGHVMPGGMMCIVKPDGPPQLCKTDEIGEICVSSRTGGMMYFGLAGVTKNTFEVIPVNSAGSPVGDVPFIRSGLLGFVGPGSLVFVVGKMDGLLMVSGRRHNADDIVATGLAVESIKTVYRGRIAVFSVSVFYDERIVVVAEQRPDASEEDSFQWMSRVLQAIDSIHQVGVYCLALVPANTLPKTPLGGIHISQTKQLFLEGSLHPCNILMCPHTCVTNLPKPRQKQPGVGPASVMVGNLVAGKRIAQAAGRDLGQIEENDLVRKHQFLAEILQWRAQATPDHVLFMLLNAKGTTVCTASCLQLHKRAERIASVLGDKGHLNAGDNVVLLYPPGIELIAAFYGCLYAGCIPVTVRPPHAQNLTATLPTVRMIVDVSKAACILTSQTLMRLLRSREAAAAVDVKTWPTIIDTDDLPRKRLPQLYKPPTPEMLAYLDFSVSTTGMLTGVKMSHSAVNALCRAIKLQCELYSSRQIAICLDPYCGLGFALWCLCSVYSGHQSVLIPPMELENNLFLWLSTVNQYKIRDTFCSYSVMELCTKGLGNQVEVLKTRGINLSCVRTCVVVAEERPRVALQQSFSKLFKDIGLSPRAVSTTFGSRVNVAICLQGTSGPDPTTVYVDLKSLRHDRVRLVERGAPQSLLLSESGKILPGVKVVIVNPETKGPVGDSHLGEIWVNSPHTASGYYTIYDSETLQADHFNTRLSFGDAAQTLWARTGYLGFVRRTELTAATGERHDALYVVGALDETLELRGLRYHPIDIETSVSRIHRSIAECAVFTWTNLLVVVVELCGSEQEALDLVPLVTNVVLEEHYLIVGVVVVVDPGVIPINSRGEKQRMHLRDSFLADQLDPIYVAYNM
UniProt Q9NVM6: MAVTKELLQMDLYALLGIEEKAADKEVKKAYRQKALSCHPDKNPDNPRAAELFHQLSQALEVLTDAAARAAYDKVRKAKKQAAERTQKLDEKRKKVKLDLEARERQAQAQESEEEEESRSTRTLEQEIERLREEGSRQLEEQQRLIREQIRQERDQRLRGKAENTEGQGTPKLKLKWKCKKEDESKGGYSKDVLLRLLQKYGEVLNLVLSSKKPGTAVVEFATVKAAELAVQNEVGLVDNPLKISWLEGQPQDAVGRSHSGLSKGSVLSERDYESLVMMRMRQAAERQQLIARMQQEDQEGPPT

± gives the standard deviation of the averaged measurements. The list shows a part of the results.

Compound in this test: Nc1nc2c(ncn2[C@@H]2O[C@H](COP(=O)(O)OP(=O)(O)OP(=O)(O)O)[C@@H](O)[C@H]2O)c(=O)[nH]1 [guanosine triphosphate]
As to the kind of experiment: NP40-soluble protein abundance relative to vehicle (solubility fold change) (ratio); higher = more soluble protein in presence of GTP. An outline of the steps: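 Jurkat crude lysate prepared with a Dounce homogeniser was treated at eight concentrations spanning 0.1 to 10 mM, 10 min at room temperature then 3 min at 37 °C. Solubilisation with 0.8% NP40 and benzonase and ultracentrifugation preceded TMT labelling of the supernatant for LC-MS/MS. Fold change against the detergent-processed vehicle was determined per replicate from vsn-normalised intensities, across three independent experiments.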

For the target UniProt Q9NZB2 and related entries, the NP40-soluble protein abundance came out at 1.02 ± 0.028 (concentration: 0.1mM); 1.07 ± 0.042 (concentration: 0.5mM); 1.11 ± 0.12 (concentration: 1mM); 1.16 ± 0.14 (concentration: 2mM); 1.18 ± 0.16 (concentration: 4mM); 1.2 ± 0.15 (concentration: 6mM). Further, the NP40-soluble protein abundance turned out to be 1.25 ± 0.18 (concentration: 8mM) and 1.24 ± 0.17 (concentration: 10mM).

Take VPS51 (UniProt Q9UID3): the NP40-soluble protein abundance runs as follows: (concentration: 0.1mM) 1.09 ± 0.031; (concentration: 0.5mM) 1.07 ± 0.026; (concentration: 1mM) 0.987 ± 0.087; (concentration: 2mM) 1.06 ± 0.041; (concentration: 4mM) 1.03 ± 0.075; (concentration: 6mM) 0.998 ± 0.046. For the same target, the NP40-soluble protein abundance reads like this: (concentration: 8mM) 0.969 ± 0.032; (concentration: 10mM) 0.923 ± 0.04.

For UniProt Q9UK76, the NP40-soluble protein abundance (concentration: 0.1mM) turned out to be 1.09 ± 0.044; the NP40-soluble protein abundance (concentration: 0.5mM) amounted to 1.09 ± 0.06; the NP40-soluble protein abundance (concentration: 1mM) came to 1.08 ± 0.035; the NP40-soluble protein abundance (concentration: 2mM) was found to be 0.984 ± 0.15; the NP40-soluble protein abundance (concentration: 4mM) turned out to be 0.934 ± 0.089; the NP40-soluble protein abundance (concentration: 6mM) amounted to 0.947 ± 0.15. Also, the NP40-soluble protein abundance is, setting by setting: (concentration: 8mM) 1.01 ± 0.091; (concentration: 10mM) 0.998 ± 0.12.

Turning to GRHPR (UniProt Q9UBQ7), the NP40-soluble protein abundance runs as follows: (concentration: 0.1mM) 0.995 ± 0.024; (concentration: 0.5mM) 1.01 ± 0.067; (concentration: 1mM) 0.847 ± 0.042; (concentration: 2mM) 0.866 ± 0.06; (concentration: 4mM) 0.834 ± 0.039; (concentration: 6mM) 0.829 ± 0.036. In addition, the NP40-soluble protein abundance is 0.773 ± 0.059 (concentration: 8mM) and 0.798 ± 0.062 (concentration: 10mM).

Regarding CFDP1 (UniProt Q9UEE9), the NP40-soluble protein abundance came out at 0.899 ± 0.11 (concentration: 0.1mM); 0.913 ± 0.14 (concentration: 0.5mM); 0.953 ± 0.13 (concentration: 1mM); 0.882 ± 0.18 (concentration: 2mM); 0.854 ± 0.17 (concentration: 4mM); 0.894 ± 0.18 (concentration: 6mM). For the same target, the NP40-soluble protein abundance is, setting by setting: (concentration: 8mM) 0.923 ± 0.093; (concentration: 10mM) 0.923 ± 0.12.

Turning to UniProt Q9UJ83 and related entries, the NP40-soluble protein abundance reads like this: (concentration: 0.1mM) 1.067 ± 0.0066; (concentration: 0.5mM) 1.03 ± 0.11; (concentration: 1mM) 0.98 ± 0.05; (concentration: 2mM) 1.01 ± 0.11; (concentration: 4mM) 0.987 ± 0.04; (concentration: 6mM) 0.958 ± 0.08. In addition, the NP40-soluble protein abundance is 0.926 ± 0.021 (concentration: 8mM) and 0.9129 ± 0.0074 (concentration: 10mM).

In the case of METTL1 (UniProt Q9UBP6), the NP40-soluble protein abundance is 0.998 ± 0.11 (concentration: 0.1mM); 0.961 ± 0.15 (concentration: 0.5mM); 0.967 ± 0.083 (concentration: 1mM); 0.945 ± 0.14 (concentration: 2mM); 1 ± 0.092 (concentration: 4mM); 0.924 ± 0.13 (concentration: 6mM). Moreover, the NP40-soluble protein abundance by setting is: (concentration: 8mM) 0.96 ± 0.13; (concentration: 10mM) 0.952 ± 0.1.

Consider UniProt Q9ULP9 and related entries, for which the NP40-soluble protein abundance was 1.08 ± 0.031 (concentration: 0.1mM); 1.04 ± 0.068 (concentration: 0.5mM); 1.02 ± 0.021 (concentration: 1mM); 1.03 ± 0.063 (concentration: 2mM); 1.01 ± 0.096 (concentration: 4mM); 0.953 ± 0.078 (concentration: 6mM). In addition, the NP40-soluble protein abundance amounted to 0.985 ± 0.099 (concentration: 8mM) and 0.974 ± 0.042 (concentration: 10mM).

With UniProt Q9P1Y5 and related entries, the NP40-soluble protein abundance (concentration: 0.1mM) came to 1.07 ± 0.041; the NP40-soluble protein abundance (concentration: 0.5mM) amounted to 1.13 ± 0.051; the NP40-soluble protein abundance (concentration: 1mM) turned out to be 1.07 ± 0.074; the NP40-soluble protein abundance (concentration: 2mM) came out at 1.13 ± 0.042; the NP40-soluble protein abundance (concentration: 4mM) amounted to 1.147 ± 0.0027; the NP40-soluble protein abundance (concentration: 6mM) was 1.18 ± 0.14. Moreover, the NP40-soluble protein abundance turned out to be 1.15 ± 0.016 (concentration: 8mM) and 1.14 ± 0.031 (concentration: 10mM).

Regarding UniProt Q9UBP0 and related entries, the NP40-soluble protein abundance came out at 1.09 ± 0.052 (concentration: 0.1mM); 1.07 ± 0.081 (concentration: 0.5mM); 1.02 ± 0.043 (concentration: 1mM); 1.01 ± 0.054 (concentration: 2mM); 0.974 ± 0.034 (concentration: 4mM); 0.977 ± 0.058 (concentration: 6mM). Moreover, the NP40-soluble protein abundance by setting is: (concentration: 8mM) 0.979 ± 0.069; (concentration: 10mM) 0.975 ± 0.069.

With TRMT6 (UniProt Q9UJA5), the NP40-soluble protein abundance (concentration: 0.1mM) turned out to be 1 ± 0.038; the NP40-soluble protein abundance (concentration: 0.5mM) turned out to be 0.9845 ± 0.006; the NP40-soluble protein abundance (concentration: 1mM) was 0.9744 ± 0.0043; the NP40-soluble protein abundance (concentration: 2mM) was 0.973 ± 0.029; the NP40-soluble protein abundance (concentration: 4mM) was 0.968 ± 0.054; the NP40-soluble protein abundance (concentration: 6mM) was found to be 0.952 ± 0.017. Also, the NP40-soluble protein abundance (concentration: 8mM) is 0.965 ± 0.0097 and the NP40-soluble protein abundance (concentration: 10mM) turned out to be 0.968 ± 0.019.

In the case of ARMCX3 (UniProt Q9UH62), the NP40-soluble protein abundance by setting is: (concentration: 0.1mM) 0.99 ± 0.12; (concentration: 0.5mM) 1.02 ± 0.12; (concentration: 1mM) 0.987 ± 0.12; (concentration: 2mM) 1.01 ± 0.13; (concentration: 4mM) 1 ± 0.071; (concentration: 6mM) 1.05 ± 0.068. The NP40-soluble protein abundance (concentration: 8mM) worked out at 0.914 ± 0.12 and the NP40-soluble protein abundance (concentration: 10mM) turned out to be 1.02 ± 0.11.

Regarding DIP2B (UniProt Q9P265), the NP40-soluble protein abundance reads like this: (concentration: 0.1mM) 1.01 ± 0.03; (concentration: 0.5mM) 0.997 ± 0.034; (concentration: 1mM) 0.951 ± 0.018; (concentration: 2mM) 0.982 ± 0.043; (concentration: 4mM) 0.973 ± 0.044; (concentration: 6mM) 0.969 ± 0.031. For the same target, the NP40-soluble protein abundance turned out to be 0.958 ± 0.041 (concentration: 8mM) and 0.924 ± 0.049 (concentration: 10mM).

As for DNAJC17 (UniProt Q9NVM6), the NP40-soluble protein abundance reads like this: (concentration: 0.1mM) 0.836 ± 0.025; (concentration: 0.5mM) 0.92 ± 0.14; (concentration: 1mM) 0.992 ± 0.11; (concentration: 2mM) 1.01 ± 0.028; (concentration: 4mM) 1.08 ± 0.1; (concentration: 6mM) 1.06 ± 0.15. Further, the NP40-soluble protein abundance reads like this: (concentration: 8mM) 0.987 ± 0.027; (concentration: 10mM) 1.23 ± 0.2.
